The supplement of paper PMC10849652
This is one part of the list.

Sequences of proteins named here, by UniProt entry; tags and fusion partners are left off. A change or cut given only in a name is not applied to a line headed by its entry.
UniProt Q86TB9: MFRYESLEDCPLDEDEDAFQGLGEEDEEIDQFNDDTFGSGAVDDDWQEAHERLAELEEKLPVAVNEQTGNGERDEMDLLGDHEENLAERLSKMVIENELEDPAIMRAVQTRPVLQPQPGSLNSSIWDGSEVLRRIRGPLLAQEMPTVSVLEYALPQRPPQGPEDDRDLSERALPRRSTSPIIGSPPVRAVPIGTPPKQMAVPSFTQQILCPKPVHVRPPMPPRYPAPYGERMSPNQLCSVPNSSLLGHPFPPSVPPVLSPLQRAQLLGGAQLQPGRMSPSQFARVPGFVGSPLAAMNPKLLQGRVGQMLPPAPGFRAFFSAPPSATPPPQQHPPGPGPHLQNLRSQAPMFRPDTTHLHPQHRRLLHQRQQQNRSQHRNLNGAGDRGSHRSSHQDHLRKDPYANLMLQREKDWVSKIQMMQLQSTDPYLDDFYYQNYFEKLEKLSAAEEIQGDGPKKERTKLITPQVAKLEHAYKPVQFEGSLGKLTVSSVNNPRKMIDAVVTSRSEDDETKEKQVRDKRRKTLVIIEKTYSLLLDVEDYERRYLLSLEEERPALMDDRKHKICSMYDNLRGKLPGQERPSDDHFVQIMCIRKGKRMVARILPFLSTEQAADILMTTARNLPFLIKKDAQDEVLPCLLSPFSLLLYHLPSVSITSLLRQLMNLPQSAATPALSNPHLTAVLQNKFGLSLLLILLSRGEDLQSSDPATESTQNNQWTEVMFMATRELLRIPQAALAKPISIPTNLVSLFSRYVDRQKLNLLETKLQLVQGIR
UniProt Q9UKK3: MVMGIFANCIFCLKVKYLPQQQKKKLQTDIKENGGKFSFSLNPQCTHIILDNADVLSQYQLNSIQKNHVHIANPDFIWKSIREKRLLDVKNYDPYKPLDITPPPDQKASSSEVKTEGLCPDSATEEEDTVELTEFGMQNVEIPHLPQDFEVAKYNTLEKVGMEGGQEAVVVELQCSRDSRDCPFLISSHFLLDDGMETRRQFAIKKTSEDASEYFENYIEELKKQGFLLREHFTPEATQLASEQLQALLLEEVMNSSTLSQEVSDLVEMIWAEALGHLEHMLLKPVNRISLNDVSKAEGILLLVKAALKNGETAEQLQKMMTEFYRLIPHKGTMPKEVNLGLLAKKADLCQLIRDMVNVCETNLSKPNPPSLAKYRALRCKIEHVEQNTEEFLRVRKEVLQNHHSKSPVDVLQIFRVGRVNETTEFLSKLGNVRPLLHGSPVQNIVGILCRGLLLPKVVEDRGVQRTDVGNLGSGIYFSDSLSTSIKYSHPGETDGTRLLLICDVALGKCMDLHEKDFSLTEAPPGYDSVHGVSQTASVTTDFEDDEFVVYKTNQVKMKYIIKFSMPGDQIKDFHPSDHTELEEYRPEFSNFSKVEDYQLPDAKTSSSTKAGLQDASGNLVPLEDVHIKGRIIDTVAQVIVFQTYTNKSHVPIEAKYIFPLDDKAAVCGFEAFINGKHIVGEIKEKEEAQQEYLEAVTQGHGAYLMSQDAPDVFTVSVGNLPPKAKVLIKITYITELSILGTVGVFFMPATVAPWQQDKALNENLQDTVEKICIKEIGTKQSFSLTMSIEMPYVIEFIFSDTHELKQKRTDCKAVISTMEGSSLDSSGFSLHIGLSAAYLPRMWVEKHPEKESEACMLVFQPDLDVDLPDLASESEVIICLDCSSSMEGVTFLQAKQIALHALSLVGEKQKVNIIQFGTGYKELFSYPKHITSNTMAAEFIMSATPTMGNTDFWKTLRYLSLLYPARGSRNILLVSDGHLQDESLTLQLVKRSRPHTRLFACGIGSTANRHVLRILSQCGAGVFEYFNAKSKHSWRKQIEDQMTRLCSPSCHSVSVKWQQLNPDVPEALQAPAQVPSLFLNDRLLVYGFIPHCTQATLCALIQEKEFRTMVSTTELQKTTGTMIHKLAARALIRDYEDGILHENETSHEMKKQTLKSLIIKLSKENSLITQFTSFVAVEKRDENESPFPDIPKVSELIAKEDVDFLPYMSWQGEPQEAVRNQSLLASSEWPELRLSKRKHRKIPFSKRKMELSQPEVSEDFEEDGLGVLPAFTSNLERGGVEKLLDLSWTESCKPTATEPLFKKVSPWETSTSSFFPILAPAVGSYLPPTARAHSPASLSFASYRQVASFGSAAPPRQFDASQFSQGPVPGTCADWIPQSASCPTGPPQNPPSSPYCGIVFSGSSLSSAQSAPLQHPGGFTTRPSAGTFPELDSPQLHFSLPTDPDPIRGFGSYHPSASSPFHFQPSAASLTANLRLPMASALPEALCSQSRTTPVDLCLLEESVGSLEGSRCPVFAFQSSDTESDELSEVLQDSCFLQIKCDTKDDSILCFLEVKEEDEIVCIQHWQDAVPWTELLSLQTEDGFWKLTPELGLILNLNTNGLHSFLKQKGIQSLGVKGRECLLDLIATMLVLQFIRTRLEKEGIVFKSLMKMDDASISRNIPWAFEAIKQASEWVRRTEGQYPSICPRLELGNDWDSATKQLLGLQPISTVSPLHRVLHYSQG
UniProt Q5VU43: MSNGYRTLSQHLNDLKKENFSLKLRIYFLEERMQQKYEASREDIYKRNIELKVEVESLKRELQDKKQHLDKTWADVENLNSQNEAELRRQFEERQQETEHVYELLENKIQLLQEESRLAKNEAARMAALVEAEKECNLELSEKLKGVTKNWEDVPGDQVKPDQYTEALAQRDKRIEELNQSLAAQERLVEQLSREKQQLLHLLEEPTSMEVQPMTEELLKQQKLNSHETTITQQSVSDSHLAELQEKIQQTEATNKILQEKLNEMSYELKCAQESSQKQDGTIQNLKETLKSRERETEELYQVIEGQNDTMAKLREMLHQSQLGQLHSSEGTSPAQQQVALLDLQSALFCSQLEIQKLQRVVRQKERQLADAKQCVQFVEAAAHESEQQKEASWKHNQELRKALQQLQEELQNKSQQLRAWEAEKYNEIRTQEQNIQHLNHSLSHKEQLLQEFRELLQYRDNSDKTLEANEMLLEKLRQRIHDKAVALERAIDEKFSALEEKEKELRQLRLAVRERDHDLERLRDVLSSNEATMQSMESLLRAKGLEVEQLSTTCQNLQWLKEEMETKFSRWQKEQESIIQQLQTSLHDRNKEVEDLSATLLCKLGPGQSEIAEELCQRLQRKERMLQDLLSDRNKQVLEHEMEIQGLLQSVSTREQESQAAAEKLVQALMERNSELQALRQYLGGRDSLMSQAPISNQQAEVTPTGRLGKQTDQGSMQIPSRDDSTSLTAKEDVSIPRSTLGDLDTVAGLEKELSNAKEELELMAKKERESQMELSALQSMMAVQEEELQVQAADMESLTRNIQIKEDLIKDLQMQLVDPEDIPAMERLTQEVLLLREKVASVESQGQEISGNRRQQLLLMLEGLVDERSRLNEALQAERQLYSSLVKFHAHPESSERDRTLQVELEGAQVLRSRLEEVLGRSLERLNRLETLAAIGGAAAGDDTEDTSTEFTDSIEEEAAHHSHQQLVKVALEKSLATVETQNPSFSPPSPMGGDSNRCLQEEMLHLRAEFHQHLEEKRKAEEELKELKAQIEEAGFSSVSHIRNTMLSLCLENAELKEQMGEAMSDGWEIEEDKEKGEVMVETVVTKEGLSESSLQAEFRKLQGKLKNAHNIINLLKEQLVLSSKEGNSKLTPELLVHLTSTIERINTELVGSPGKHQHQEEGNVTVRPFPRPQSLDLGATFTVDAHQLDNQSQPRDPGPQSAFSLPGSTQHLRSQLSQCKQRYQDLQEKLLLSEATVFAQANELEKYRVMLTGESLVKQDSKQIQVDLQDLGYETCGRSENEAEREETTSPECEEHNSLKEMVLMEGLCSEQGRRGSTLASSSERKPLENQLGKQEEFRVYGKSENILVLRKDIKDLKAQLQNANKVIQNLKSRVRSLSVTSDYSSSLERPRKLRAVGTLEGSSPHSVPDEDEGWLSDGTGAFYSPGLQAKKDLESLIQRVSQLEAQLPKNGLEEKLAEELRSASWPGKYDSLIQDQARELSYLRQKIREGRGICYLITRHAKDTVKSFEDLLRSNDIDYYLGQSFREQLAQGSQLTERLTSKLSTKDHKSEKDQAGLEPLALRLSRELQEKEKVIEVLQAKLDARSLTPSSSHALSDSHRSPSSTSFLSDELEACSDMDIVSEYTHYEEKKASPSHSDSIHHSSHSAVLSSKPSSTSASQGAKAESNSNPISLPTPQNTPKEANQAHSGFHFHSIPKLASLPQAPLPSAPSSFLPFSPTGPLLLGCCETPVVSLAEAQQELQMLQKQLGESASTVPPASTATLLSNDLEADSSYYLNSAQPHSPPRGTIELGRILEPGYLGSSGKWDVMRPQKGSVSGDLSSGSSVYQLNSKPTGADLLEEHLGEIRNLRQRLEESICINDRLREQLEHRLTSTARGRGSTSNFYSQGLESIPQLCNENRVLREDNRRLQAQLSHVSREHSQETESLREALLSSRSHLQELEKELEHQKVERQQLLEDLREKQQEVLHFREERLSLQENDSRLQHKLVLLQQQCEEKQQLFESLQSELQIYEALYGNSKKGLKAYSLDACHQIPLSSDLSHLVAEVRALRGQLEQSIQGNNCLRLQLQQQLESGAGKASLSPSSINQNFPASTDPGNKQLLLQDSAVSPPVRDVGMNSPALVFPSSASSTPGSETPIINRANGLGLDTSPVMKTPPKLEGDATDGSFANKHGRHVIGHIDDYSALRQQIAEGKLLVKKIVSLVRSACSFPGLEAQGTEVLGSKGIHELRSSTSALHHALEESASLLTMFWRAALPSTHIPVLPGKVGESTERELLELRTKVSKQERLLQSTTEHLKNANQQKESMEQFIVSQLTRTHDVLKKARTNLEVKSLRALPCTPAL
UniProt O95453: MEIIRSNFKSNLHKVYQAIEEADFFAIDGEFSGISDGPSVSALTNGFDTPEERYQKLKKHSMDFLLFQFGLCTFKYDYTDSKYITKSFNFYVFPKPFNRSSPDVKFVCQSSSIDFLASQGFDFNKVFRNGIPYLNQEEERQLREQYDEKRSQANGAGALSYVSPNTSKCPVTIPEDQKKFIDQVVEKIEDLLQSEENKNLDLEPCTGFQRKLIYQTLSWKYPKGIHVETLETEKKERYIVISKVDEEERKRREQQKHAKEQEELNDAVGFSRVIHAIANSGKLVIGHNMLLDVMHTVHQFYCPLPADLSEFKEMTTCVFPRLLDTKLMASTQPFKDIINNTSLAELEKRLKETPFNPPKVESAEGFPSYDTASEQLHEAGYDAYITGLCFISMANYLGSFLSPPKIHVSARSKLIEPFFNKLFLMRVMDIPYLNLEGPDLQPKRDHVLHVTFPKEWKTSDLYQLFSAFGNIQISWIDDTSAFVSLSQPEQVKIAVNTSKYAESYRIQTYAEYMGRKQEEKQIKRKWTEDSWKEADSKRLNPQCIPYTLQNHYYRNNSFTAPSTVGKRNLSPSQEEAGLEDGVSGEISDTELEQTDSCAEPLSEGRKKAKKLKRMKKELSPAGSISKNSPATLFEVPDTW
UniProt O75340: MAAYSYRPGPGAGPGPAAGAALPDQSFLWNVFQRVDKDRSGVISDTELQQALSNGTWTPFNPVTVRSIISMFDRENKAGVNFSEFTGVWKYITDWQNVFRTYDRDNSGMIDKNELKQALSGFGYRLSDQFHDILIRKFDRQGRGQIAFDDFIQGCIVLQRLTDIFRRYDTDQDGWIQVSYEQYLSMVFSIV
UniProt Q86SE9: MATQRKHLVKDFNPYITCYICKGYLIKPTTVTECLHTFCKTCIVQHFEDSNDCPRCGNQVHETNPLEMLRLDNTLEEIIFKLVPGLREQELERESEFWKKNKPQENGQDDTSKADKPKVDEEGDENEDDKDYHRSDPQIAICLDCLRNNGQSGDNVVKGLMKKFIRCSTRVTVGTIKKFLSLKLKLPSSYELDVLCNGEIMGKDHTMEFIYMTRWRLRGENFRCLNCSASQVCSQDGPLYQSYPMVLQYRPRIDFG

Tests used:
Assay in all cases: log2 fold change, soluble protein after heating vs DMSO (PISA); higher = thermal stabilisation; K562 cells, 10 uM, 30 min; active = over 0.2 and 3.5 SD of the protein, either way, in both replicates (recomputed)
saracatinib = compound: CN1CCN(CCOc2cc(OC3CCOCC3)c3c(Nc4c(Cl)ccc5c4OCO5)ncnc3c2)CC1 [saracatinib]
Outline: (§1)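 K562 cells at 2×10^6 cells/mL were treated for 30 min with 10 μM compound, and aliquots were heated for 3 min over 48°C-58°C before pooling. Extraction used PBS with 0.5% NP-40 at 4°C, and soluble protein was the supernatant after 21,000xg for 90 min, measured by TMTpro 16plex LC-MS/MS with channel sums equalised. Thermal stability values, relative to control samples and from duplicates, are log2 fold changes.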

sotrastaurin = compound: CN1CCN(c2nc(C3=C(c4c[nH]c5ccccc45)C(=O)NC3=O)c3ccccc3n2)CC1 [sotrastaurin]
Outline: as §1

Tubastatin A = compound: CN1CCc2c(c3ccccc3n2Cc2ccc(C(=O)NO)cc2)C1 [Tubastatin A]
Outline: as §1

[1] = compound: CNC(=O)C1=CC=CC=C1NC2=NC(=NC=C2Cl)NC3=C(C=C(C=C3)N4CCOCC4)OC
Outline: as §1

defactinib = compound: CNC(=O)c1ccc(Nc2ncc(C(F)(F)F)c(NCc3nccnc3N(C)S(C)(=O)=O)n2)cc1 [defactinib]
Outline: as §1

rucaparib = compound: CNCc1ccc(-c2[nH]c3cc(F)cc4c3c2CCNC4=O)cc1 [rucaparib]
Outline: as §1

[2] = compound: CNc1nc(-c2ccc3c(N)n[nH]c3c2)cc(N2C[C@@H](C(=O)NC3CCCCC3)CC[C@H]2C)n1
Outline: as §1

encorafenib = compound: COC(=O)N[C@@H](C)CNc1nccc(-c2cn(C(C)C)nc2-c2cc(Cl)cc(NS(C)(=O)=O)c2F)n1 [encorafenib]
Outline: as §1

[3] = compound: COC(=O)[C@H](CCSC)NC(=O)C1=C(C=C(C=C1)NC[C@H](CS)N)C2=CC=CC=C2
Outline: as §1

[4] = compound: COC1=CC=C(C=C1)CN2C=CC3=C2C=C(C=C3)C(=O)NO
Outline: as §1

filanesib = compound: CON(C)C(=O)N1N=C(c2cc(F)ccc2F)S[C@@]1(CCCN)c1ccccc1 [filanesib]
Outline: as §1

zotarolimus = compound: CO[C@H]1C[C@@H]2CC[C@@H](C)[C@@](O)(O2)C(=O)C(=O)N2CCCC[C@H]2C(=O)O[C@H]([C@H](C)C[C@@H]2CC[C@H](n3cnnn3)[C@H](OC)C2)CC(=O)[C@H](C)/C=C(\C)[C@@H](O)[C@@H](OC)C(=O)[C@H](C)C[C@H](C)/C=C/C=C/C=C/1C [zotarolimus]
Outline: as §1

idasanutlin = compound: COc1cc(C(=O)O)ccc1NC(=O)[C@@H]1N[C@@H](CC(C)(C)C)[C@](C#N)(c2ccc(Cl)cc2F)[C@H]1c1cccc(Cl)c1F [idasanutlin]
Outline: as §1

alisertib = compound: COc1cc(Nc2ncc3c(n2)-c2ccc(Cl)cc2C(c2c(F)cccc2OC)=NC3)ccc1C(=O)O [alisertib]
Outline: as §1

[5] = compound: COc1cc2nc(-c3cc(F)ccc3O)nc(N[C@@H]3CNC[C@H]3C(C)(C)O)c2cc1OC
Outline: as §1

[6] = compound: COc1cccc2cc(-c3nc([C@H]4CC[C@H](C(=O)O)CC4)n4ncnc(N)c34)[nH]c12
Outline: as §1

lapatinib = compound: CS(=O)(=O)CCNCc1ccc(-c2ccc3ncnc(Nc4ccc(OCc5cccc(F)c5)c(Cl)c4)c3c2)o1 [lapatinib]
Outline: as §1

pictilisib = compound: CS(=O)(=O)N1CCN(Cc2cc3nc(-c4cccc5[nH]ncc45)nc(N4CCOCC4)c3s2)CC1 [pictilisib]
Outline: as §1

gefitinib = compound: COc1cc2ncnc(Nc3ccc(F)c(Cl)c3)c2cc1OCCCN1CCOCC1 [gefitinib]
Outline: as §1

Measured: log2 fold change

PATL1 (UniProt Q86TB9)
inactive: saracatinib -0.075 | sotrastaurin -0.16 | Tubastatin A -0.001 | [1] -0.135 | defactinib -0.078 | rucaparib 0.131 | [2] 0.025 | encorafenib 0.155 | [3] -0.066 | [4] -0.015 | filanesib -0.009 | zotarolimus 0.076 | idasanutlin 0.049 | alisertib -0.035 | [5] -0.135 | [6] 0.069 | lapatinib 0.05 | pictilisib -0.115

PARP4 (UniProt Q9UKK3)
inactive: saracatinib -0.059 | sotrastaurin 0.187 | [2] 0.098 | filanesib -0.023

PDE4DIP isoform 4 (UniProt Q5VU43)
inactive: saracatinib -0.028 | sotrastaurin -0.064 | Tubastatin A 0.064 | [1] -0.065 | defactinib 0.021 | rucaparib -0.057 | [2] 0.007 | encorafenib -0.015 | [3] 0.035 | [4] 0.113 | filanesib -0.057 | zotarolimus -0.046 | idasanutlin 0.055 | alisertib -0.102 | [5] 0.024 | gefitinib 0.024 | [6] -0.022 | lapatinib -0.005 | pictilisib 0.042

PARN (UniProt O95453)
inactive: saracatinib -0.013 | sotrastaurin -0.008 | Tubastatin A -0.017 | [1] 0.02 | defactinib -0.141 | rucaparib 0.079 | [2] -0.022 | encorafenib 0.04 | [3] 0.014 | [4] 0.001 | filanesib -0.015 | zotarolimus -0.009 | idasanutlin -0.028 | alisertib 0.001 | [5] 0.051 | gefitinib -0.009 | [6] 0.04 | lapatinib -0.028 | pictilisib -0.036

PDCD6 (UniProt O75340)
inactive: saracatinib 0.038 | sotrastaurin -0.014 | Tubastatin A 0.001 | [1] 0.026 | defactinib -0.017 | rucaparib -0.048 | [2] -0.153 | encorafenib 0.002 | [3] 0.004 | [4] -0.06 | filanesib -0.124 | zotarolimus -0.03 | idasanutlin -0.106 | alisertib 0.092 | [5] 0.047 | gefitinib -0.021 | [6] 0.013 | lapatinib -0.035 | pictilisib 0.038

PCGF5 (UniProt Q86SE9)
inactive: saracatinib -0.524 | sotrastaurin -0.025 | rucaparib -0.045 | [2] -0.462 | encorafenib -0.22 | [4] 0.11 | filanesib 0.059
